This passage reports logD and Papp A→B results from ChEMBL document CHEMBL1145365, “The discovery of long acting beta2-adrenoreceptor agonists” (Bioorg Med Chem Lett, 2007).

A short description of data set [1]: Distribution coefficient, log D of the compound. Conditions: octanol/water.
The nature of a further data set: in vitro. Conditions: human, Caco-2, pH 7.4.

`C[C@H](Cc1cccc(CC(=O)NCc2cc(C(F)(F)F)ccc2F)c1)NC[C@H](O)c1ccc(O)c(CO)c1` returned a logD in data set [1] of 2.2. Also, the Papp A→B at 25 µM in “in vitro” turned out to be 2 ×10⁻⁶ cm/s.

`C[C@H](Cc1cccc(CC(=O)NCc2c(F)cccc2Cl)c1)NC[C@H](O)c1ccc(O)c(CO)c1` gave a logD in data set [1] of 1.5.

A word on the logD: it is the decadic logarithm of the distribution of all forms, ionised or not, between an organic phase and buffer at a given pH. Low values mean a more hydrophilic compound, high ones a more lipophilic compound. In general, Papp A→B refers to the apparent permeability from the apical to the basolateral side of a cell layer.
